PMC8596765 (Clinical Pharmacology in Drug Development, 2021)

Experiments:
[1] = cited from earlier work
[2] = clinical; settings: human, plasma, po, 10 mg

For `CC(C)c1c(C(=O)Nc2ccccc2)c(-c2ccccc2)c(-c2ccc(F)cc2)n1CC[C@@H](O)C[C@@H](O)CC(=O)O` [atorvastatin], the “Intrasubject variability in plasma exposures” value [1] is given as roughly 45% and the Cmax [2] is given as 1.67 ± 0.828 ng/mL.
